Consider one molecule from paper PMC7067772, “Digenic inheritance of mutations in EPHA2 and SLC26A4 in Pendred syndrome” (Nature Communications, 2020).

Chains of the proteins cited; added tags and fusions are not shown. Residues count along the entry.
UniProt Q03145, residues 26-977: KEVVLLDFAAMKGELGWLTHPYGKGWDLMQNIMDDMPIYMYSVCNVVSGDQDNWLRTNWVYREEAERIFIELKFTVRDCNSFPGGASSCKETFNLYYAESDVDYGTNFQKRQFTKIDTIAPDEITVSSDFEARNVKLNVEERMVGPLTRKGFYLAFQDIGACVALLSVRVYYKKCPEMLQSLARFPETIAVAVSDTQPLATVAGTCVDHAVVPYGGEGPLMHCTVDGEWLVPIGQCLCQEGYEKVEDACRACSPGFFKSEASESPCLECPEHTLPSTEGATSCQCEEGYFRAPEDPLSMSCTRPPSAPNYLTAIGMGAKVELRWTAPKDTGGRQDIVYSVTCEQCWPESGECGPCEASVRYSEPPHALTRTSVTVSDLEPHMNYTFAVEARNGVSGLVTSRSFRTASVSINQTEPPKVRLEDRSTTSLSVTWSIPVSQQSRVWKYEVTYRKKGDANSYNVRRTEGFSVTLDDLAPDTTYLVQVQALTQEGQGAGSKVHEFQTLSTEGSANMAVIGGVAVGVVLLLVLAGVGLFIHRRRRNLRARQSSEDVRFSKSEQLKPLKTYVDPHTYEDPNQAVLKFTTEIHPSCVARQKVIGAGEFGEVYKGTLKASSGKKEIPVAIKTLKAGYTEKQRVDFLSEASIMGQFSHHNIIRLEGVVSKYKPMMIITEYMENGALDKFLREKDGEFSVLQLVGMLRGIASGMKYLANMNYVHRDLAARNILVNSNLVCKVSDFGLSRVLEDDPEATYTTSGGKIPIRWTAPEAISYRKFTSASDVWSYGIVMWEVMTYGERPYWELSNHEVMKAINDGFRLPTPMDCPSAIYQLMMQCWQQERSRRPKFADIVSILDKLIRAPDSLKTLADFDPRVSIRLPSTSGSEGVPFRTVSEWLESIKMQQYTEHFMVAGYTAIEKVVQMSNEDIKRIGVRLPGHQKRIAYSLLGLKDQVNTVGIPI

Results are given in words; binding and its absence hold for the method and conditions named. Binding seen in cells or lysates may run through a third protein. These calls come from enrichment with a bait or labelling near it, and not all partners need be listed.

The assay has as its target EphA2 (endogenous, mouse tissues) (mouse (endogenous in kidney, thyroid, inner ear)) (UniProt Q03145). Briefly: affinity purification with mass spectrometry; anti-EphA2 antibody immunoprecipitate from adult wild type C57BL/6 mouse kidney lysate against control IgG; in-gel digestion, LC-MS/MS, label free quantification.

B1: Slc26a4 (pendrin) (endogenous, mouse tissues) (protein, UniProt Q9R155 1-780)
chain: MAARGGRSEPPQLAEYSCSYTVSRPVYSELAFQQQRERRLPERRTLRDSLARSCSCSRKRAFGVVKTLLPILDWLPKYRVKEWLLSDIISGVSTGLVGTLQGMAYALLAAVPVQFGLYSAFFPILTYFVFGTSRHISVGPFPVVSLMVGSVVLSMAPDDHFLVPSGNGSALNSTTLDTGTRDAARVLLASTLTLLVGIIQLVFGGLQIGFIVRYLADPLVGGFTTAAAFQVLVSQLKIVLNVSTKNYNGILSIIYTLIEIFQNIGDTNIADFIAGLLTIIVCMAVKELNDRFKHRIPVPIPIEVIVTIIATAISYGANLEKNYNAGIVKSIPSGFLPPVLPSVGLFSDMLAASFSIAVVAYAIAVSVGKVYATKHDYVIDGNQEFIAFGISNVFSGFFSCFVATTALSRTAVQESTGGKTQVAGLISAVIVMVAIVALGRLLEPLQKSVLAAVVIANLKGMFMQVCDVPRLWKQNKTDAVIWVFTCIMSIILGLDLGLLAGLLFALLTVVLRVQFPSWNGLGSVPSTDIYKSITHYKNLEEPEGVKILRFSSPIFYGNVDGFKKCINSTVGFDAIRVYNKRLKALRRIQKLIKKGQLRATKNGIISDIGSSNNAFEPDEDVEEPEELNIPTKEIEIQVDWNSELPVKVNVPKVPIHSLVLDCGAVSFLDVVGVRSLRMIVKEFQRIDVNVYFALLQDDVLEKMEQCGFFDDNIRKDRFFLTVHDAILHLQNQVKSREGQDSLLETVARIRDCKDPLDLMEAEMNAEELDVQDEAMRRLAS
Regarding B1, the binding result is recorded as “binds”.
